Reference: patent publication US20100311726A1, “REDUCTION OF BETA-AMYLOID LEVELS BY TREATMENT WITH THE SMALL MOLECULE DIFFERENTIATION-INDUCING FACTOR” (priority 2007, published 2010)
At least one compound was matched to its structure with a doubt left.

Legend:
APP [1] = test: APP processing (mature APP, αCTF, βCTF) by western blot; assay type: cell-based, human; conditions: 10 μM SP600125 and 30 μM DIF-1
Protocol: Total protein was collected in RIPA buffer plus protease inhibitors on ice and briefly sonicated. They lysate was centrifuged at 14,000 rpm for 15 minutes. […] After washing, the blots were probed with a polyclonal HRP-tagged secondary Ab (1:5000) for 1 hour at room temperature then visualized.
A second possibility is that DIF-1 potentiates the activity of y-secretase and processing of αCTFs and βCTFs. To assess this latter possibility, we examined the effect of DIF-1 in the presence of DAPT, a potent γ-secretase inhibitor. Even numbers of CHO-7W cells were plated in 6-well dishes and allowed to grow overnight. The next day, the media was removed and replaced with control media (2 ml) or media containing DAPT, DIF-1 or DAPT and DIF-1. […] After washing, blots were probed with HRP-conjugated secondary antibodies (1:5000) for 1 hour at room temperature. […] It would appear that the mechanism of DIF-1 on APP metabolism is not likely to involve γ-secretase activity, but might impact on either BACE1 levels or activity.
To evaluate this probability, we treated CHO-CAB cells that overexpress human APP^751 and human BACE1 with 30 μM of DIF-1. More specifically, even numbers of CHO-CAB cells were plated in 6-well dishes and allowed to grow overnight. The next day, the media was removed and replaced with control media (2 ml) or media containing DAPT, DIF-1 or DAPT and DIF-1. […]

APP [2] = test: as above; assay type: cell-based, human

Oc1c2ccccc2c2c3c(cccc13)N=N2 [SP600125, 1,9-Pyrazoloanthrone]
level of mature APP, pretreatment with DIF-1 (APP [1]): rescue of the level of mature APP
effect of kinase inhibitor alone on APP processing / CTF levels (APP [2]; CHO-7W or CHO-CAB, LiCl 1-10 mM): no effect on the level of APP processing
effect of kinase inhibitor pretreatment on the effect of DIF-1 on APP processing (APP [2]; with 30 μM DIF-1): did not block or potentiate the effect of DIF-1 on APP CTF production
